Consider one molecule from patent US20050221291A1.

Protein sequences, listed by entry. Tags and fused reporters are not part of them. Lines headed by an entry give the natural chain unless they say otherwise; changes in a name come on top.
UniProt Q9NNX6: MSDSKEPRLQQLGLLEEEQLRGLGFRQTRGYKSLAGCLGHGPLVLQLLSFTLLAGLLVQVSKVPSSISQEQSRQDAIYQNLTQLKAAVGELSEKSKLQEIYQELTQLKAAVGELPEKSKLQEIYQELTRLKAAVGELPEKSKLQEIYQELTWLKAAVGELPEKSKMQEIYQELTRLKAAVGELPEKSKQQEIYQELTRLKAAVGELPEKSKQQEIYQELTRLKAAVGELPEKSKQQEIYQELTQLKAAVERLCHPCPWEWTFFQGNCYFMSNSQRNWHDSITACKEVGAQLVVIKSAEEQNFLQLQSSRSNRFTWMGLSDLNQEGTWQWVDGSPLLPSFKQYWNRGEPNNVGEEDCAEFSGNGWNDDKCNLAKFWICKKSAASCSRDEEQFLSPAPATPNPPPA

The assay addresses DC-SIGN1 expressed on transfected THP-1 cells (prototypic membrane-associated DC-SIGN1, mDC-SIGN1A type I) (human) (UniProt Q9NNX6). Nature of the assay: fluorescent bead adhesion assay, flow cytometry. (In general: A flow cytometer gives signals particle by particle.)

These are yes or no findings as the source states them, for the method shown. Some entries that bind do so weakly or less than the wild type. Tags and fused reporters may be left off the sequences shown.

B1: ICAM-3/Fc (Fc fusion, UniProt P32942 30-485, looked up, not shown: a dimerising Fc or GST)
chain: QEFLLRVEPQNPVLSAGGSLFVNCSTDCPSSEKIALETSLSKELVASGMGWAAFNLSNVTGNSRILCSVYCNGSQITGSSNITVYRLPERVELAPLPPWQPVGQNFTLRCQVEDGSPRTSLTVVLLRWEEELSRQPAVEEPAEVTATVLASRDDHGAPFSCRTELDMQPQGLGLFVNTSAPRQLRTFVLPVTPPRLVAPRFLEVETSWPVDCTLDGLFPASEAQVYLALGDQMLNATVMNHGDTLTATATATARADQEGAREIVCNVTLGGERREARENLTVFSFLGPIVNLSEPTAHEGSTVTVSCMAGARVQVTLDGVPAAAPGQPAQLQLNATESDDGRSFFCSATLEVDGEFLHRNSSVQLRVLYGPKIDRATCPQHLKWKDKTRHVLQCQARGNPYPELRCLKEGSSREVPVGIPFFVNVTHNGTYQCQASSSRGKYTLVVVMDIEAGSSH
Regarding B1, the binding entry is on record as “binds”.
